From patent publication US7169892B2 (Astellas Pharma Inc., priority 2003, dated 2007)

Test: general procedure: Fmoc solid-phase peptide synthesis; Fmoc-Gly-Wang Resin; HBTU/DIEA
Details: whole synthesis
[1] = RP-HPLC peak surface area ratio

Substance | final HPLC purity (RP-HPLC peak area ratio) [%] | final HPLC purity [1] [%]
9-fluorenylmethyloxycarbonyl (Fmoc)-glycyl-prolyl-glutamyl-glycyl-isoleucyl-alanyl-glycyl -tryptophanyl-glycine | 99.5 | –
Fmoc-GPQGIWGQG | – | 98.4
Fmoc-GPLGIAGQG | – | 98.7

Where no end group is shown, it is not given here. The star is where a group is joined. Fmoc = O=C(OCC1c2ccccc2-c2ccccc21)*
